For the assay, the target named is CHIP (C-terminus of Hsc70-Interacting Protein), FLAG-tagged (UniProt Q9UNE7). The experiment in a line: co-IP.

By UniProt entry, the sequences of proteins in these tests, tags left out.
UniProt Q9UNE7: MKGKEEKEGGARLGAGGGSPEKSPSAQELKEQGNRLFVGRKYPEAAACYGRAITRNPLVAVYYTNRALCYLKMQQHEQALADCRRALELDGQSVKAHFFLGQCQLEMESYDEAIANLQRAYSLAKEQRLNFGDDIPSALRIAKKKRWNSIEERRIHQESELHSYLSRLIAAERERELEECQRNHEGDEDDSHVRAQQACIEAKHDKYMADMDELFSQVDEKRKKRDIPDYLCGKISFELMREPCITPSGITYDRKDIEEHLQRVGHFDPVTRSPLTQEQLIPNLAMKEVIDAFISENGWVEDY
UniProt P31749: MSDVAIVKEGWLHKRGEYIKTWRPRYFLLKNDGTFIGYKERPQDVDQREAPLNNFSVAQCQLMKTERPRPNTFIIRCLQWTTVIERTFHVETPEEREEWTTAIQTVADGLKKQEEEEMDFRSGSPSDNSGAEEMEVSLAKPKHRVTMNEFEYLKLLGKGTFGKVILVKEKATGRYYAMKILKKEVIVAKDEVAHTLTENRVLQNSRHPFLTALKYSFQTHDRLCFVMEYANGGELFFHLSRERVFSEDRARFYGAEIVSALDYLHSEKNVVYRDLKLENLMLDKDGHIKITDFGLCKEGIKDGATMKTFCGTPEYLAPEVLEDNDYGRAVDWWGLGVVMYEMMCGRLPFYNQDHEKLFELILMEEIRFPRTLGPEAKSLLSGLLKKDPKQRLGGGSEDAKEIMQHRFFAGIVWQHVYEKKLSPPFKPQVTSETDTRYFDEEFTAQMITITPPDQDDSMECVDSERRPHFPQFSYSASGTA

Results are given in words; binding and its absence hold for the method and conditions named. In cells and extracts the contact can be indirect. Some binding calls cover weakened binding; strength is not graded here.

As to AKT (from UniProt P31749 1-480), the binding entry is “binds”.

For the origin of these results see publication doi:10.1101/2025.10.15.682604.
